Measurements published in the supplement of paper PMC12823440, “Inhibitors supercharge kinase turnover through native proteolytic circuits” (Nature, 2025).
The other results are listed elsewhere or left out. Hit calls seldom repeat between salt and free forms of one compound.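 Kinases, fused to nanoluciferase, were expressed in K562 cells; luminescence was measured every 4 h from 2 to 18 h as percent of control (DMSO = 100%, positive control = 0%). A time point is decreased if signal falls significantly (2 sigma). Hits were called by the authors by a rule that is not shown; the count of time points alone does not decide it.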

By UniProt entry, the sequences of proteins in these tests, tags left out. Where a name states a change or a piece, a line headed by the entry shows the natural chain unless it says otherwise.
UniProt Q01974, whole entry: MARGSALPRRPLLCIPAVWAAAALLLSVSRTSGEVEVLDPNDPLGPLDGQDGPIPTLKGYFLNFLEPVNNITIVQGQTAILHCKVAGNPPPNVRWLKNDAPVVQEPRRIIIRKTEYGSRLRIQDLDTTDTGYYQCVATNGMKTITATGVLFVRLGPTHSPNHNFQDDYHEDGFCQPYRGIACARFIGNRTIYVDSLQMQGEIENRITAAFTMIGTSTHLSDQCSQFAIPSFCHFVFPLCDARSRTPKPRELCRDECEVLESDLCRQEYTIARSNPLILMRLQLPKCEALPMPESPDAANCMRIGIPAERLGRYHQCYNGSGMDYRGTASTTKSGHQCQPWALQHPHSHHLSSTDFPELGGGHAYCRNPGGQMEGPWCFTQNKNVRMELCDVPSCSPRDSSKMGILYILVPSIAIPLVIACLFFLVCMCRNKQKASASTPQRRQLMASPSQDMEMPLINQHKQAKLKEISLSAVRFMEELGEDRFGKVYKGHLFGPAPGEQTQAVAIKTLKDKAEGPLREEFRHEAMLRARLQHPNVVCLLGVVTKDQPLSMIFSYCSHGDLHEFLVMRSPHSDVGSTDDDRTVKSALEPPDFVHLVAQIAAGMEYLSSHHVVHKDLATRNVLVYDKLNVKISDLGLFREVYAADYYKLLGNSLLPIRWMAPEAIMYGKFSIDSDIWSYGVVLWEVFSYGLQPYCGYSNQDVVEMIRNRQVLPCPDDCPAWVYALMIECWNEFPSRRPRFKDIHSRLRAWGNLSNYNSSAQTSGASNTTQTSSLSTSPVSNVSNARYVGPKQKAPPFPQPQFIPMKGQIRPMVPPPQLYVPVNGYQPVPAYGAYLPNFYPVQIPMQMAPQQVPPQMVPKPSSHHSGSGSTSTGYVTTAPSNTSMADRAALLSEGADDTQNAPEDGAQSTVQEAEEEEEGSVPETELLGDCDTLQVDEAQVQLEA
UniProt Q15418, whole entry: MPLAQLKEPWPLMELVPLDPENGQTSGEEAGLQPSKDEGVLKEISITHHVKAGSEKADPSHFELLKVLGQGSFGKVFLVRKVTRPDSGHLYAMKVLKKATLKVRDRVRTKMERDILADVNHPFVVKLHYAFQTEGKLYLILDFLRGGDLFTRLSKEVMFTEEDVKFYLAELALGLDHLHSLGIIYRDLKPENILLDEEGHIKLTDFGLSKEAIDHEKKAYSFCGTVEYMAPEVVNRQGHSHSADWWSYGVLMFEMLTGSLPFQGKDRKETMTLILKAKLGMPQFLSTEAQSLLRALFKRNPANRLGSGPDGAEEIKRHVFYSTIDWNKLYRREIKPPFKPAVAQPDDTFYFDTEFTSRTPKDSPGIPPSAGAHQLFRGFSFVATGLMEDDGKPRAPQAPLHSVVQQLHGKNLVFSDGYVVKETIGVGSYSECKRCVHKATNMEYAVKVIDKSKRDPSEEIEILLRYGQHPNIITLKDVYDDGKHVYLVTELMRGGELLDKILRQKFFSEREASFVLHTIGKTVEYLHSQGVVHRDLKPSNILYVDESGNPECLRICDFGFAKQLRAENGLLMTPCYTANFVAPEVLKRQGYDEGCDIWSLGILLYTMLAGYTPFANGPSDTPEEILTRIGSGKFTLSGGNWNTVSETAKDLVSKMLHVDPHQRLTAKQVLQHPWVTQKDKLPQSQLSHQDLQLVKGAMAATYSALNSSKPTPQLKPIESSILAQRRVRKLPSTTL
UniProt Q9NYA1, whole entry: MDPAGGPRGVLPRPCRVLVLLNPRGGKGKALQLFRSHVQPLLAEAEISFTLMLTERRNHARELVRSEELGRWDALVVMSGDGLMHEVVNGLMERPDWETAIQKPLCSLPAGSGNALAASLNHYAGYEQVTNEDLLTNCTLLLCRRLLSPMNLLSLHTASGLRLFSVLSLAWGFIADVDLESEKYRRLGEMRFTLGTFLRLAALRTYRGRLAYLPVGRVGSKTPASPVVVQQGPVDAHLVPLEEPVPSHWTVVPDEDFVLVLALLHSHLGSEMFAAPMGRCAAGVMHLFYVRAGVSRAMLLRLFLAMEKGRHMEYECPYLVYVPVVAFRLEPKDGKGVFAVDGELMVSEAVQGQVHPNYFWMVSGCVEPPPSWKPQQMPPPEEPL
UniProt Q9Y6E0: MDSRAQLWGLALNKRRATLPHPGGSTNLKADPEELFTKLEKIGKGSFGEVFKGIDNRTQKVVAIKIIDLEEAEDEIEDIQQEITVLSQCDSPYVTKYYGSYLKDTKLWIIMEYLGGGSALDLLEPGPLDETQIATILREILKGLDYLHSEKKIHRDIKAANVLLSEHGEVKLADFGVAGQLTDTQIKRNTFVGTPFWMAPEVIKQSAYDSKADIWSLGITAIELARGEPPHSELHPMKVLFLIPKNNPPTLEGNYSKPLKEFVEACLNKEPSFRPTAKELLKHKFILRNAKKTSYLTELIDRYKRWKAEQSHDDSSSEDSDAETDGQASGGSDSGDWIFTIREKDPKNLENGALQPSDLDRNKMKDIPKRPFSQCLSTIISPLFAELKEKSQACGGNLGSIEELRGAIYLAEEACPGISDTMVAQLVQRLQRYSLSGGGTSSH
UniProt Q15208: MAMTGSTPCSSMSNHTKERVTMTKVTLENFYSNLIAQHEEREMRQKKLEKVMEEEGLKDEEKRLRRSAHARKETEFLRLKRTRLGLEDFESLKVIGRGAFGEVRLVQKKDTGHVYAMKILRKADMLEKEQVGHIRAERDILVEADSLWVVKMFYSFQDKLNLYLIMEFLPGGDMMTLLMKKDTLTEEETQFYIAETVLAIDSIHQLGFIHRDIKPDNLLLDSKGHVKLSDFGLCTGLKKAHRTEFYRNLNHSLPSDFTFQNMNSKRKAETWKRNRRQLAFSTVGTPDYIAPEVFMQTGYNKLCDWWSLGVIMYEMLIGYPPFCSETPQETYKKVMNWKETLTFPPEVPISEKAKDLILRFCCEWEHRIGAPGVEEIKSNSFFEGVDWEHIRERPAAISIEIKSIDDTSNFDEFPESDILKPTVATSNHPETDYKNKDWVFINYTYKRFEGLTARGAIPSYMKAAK
UniProt P42680: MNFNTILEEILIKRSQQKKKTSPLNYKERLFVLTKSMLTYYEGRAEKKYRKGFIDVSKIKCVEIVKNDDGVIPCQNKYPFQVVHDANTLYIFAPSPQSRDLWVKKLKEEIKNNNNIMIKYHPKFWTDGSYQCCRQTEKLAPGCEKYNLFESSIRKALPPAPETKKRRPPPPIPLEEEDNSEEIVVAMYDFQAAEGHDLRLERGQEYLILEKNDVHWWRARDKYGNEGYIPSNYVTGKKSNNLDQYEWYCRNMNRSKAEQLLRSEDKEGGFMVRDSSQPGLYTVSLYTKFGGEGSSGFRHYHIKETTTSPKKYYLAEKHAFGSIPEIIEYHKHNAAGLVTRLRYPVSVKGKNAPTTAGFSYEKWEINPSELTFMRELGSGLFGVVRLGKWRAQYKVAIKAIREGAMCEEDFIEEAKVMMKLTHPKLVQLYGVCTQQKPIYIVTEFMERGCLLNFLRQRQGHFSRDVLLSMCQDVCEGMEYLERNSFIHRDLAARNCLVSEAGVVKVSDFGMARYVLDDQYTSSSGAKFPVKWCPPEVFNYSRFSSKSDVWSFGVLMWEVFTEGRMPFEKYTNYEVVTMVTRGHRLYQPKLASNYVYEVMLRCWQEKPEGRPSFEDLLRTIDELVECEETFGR
UniProt P29597: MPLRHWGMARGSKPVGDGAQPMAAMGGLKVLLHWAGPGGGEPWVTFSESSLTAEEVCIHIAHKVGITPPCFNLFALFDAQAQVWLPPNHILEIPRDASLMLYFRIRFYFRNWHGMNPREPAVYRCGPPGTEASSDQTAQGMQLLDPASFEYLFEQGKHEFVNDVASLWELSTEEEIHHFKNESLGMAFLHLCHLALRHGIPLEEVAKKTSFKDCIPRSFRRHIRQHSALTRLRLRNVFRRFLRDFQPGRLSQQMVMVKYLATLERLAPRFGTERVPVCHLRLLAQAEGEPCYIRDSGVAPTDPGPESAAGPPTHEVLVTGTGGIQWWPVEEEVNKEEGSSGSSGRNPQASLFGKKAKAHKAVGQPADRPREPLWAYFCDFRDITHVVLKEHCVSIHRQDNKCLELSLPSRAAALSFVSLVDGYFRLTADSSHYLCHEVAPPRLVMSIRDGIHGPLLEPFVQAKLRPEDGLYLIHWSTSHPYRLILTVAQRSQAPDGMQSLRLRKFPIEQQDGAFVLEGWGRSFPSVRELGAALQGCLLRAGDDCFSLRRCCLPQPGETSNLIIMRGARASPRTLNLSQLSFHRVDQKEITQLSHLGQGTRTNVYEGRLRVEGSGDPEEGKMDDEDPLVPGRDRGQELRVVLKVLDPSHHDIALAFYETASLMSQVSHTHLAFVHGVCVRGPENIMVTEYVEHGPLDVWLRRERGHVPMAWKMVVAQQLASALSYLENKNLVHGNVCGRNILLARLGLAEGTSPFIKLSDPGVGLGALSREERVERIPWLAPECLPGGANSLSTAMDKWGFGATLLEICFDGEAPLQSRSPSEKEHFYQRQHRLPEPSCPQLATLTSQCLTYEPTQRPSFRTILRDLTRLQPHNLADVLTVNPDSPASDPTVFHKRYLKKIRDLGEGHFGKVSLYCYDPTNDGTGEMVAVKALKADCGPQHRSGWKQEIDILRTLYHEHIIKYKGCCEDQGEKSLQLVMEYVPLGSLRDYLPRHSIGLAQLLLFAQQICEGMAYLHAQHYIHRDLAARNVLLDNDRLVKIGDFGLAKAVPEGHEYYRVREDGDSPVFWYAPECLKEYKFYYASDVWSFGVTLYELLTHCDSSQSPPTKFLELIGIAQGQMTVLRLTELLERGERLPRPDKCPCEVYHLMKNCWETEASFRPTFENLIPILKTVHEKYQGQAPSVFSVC
UniProt Q6PHR2: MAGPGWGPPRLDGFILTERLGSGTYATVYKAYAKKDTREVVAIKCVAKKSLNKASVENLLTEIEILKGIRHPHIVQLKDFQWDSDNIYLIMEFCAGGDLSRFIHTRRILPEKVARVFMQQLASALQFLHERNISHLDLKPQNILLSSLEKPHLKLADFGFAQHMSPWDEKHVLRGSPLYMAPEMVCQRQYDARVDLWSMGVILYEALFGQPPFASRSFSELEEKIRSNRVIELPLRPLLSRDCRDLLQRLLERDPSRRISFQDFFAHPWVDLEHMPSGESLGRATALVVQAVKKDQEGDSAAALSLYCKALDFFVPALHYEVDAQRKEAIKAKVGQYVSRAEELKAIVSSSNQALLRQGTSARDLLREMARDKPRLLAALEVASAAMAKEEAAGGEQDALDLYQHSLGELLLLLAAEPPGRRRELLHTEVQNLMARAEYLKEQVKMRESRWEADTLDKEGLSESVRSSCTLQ

How the values were obtained:
Assay in all cases: number of time points (of 5) at which kinase-Nluc abundance scored as decreased, DMSO-normalised (count); higher = more persistent destabilization
Conditions in all cases: K562; 2-18 h
[1] = target: ROR2 (UniProt Q01974)
[2] = target: RPS6KA1 (UniProt Q15418)
[3] = target: SPHK1 (UniProt Q9NYA1)
[4] = target: SRC (UniProt P12931)
[5] = target: STK24 (UniProt Q9Y6E0)
[6] = target: STK38 (UniProt Q15208)
[7] = target: SYK (UniProt P43405)
[8] = target: TEC (UniProt P42680)
[9] = target: TYK2 (UniProt P29597)
[10] = target: ULK3 (UniProt Q6PHR2)

SMILES: N#CC(C#N)=NNc1cccc(Cl)c1 (2.5 µM)
- number of time points [1]: 0
- number of time points [2]: 0
- number of time points [3]: 0
- number of time points [4]: 0
- number of time points [5]: 0
- number of time points [6]: 0
- number of time points [7]: 0
- number of time points [8]: 0
- number of time points [9]: 3
- number of time points [10]: 0

SMILES: C=CC(=O)N[C@H]1C=C(C)c2c(-c3cnc4ccccc4c3)c3c(N)ncnc3n2C1 (10 µM)
- number of time points [1]: 0
- number of time points [2]: 0
- number of time points [3]: 0
- number of time points [4]: 0
- number of time points [5]: 0
- number of time points [6]: 0
- number of time points [7]: 0
- number of time points [8]: 2
- number of time points [9]: 0
- number of time points [10]: 0

SMILES: COc1ccc2c(c[n+](C)c3c4cc5c(cc4ccc23)OCO5)c1OC [Chelerythrine (chloride)] (10 µM)
- number of time points [1]: 0
- number of time points [2]: 0
- number of time points [3]: 0
- number of time points [4]: 0
- number of time points [5]: 0
- number of time points [6]: 0
- number of time points [7]: 0
- number of time points [8]: 0
- number of time points [9]: 0
- number of time points [10]: 0

SMILES: O=c1[nH]c2ccccc2n1C1CCN(CCCC(c2ccc(F)cc2)c2ccc(F)cc2)CC1 [Pimozide] (2.5 µM)
- number of time points [1]: 0
- number of time points [2]: 0
- number of time points [3]: 0
- number of time points [4]: 0
- number of time points [5]: 0
- number of time points [6]: 0
- number of time points [7]: 0
- number of time points [8]: 0
- number of time points [9]: 0
- number of time points [10]: 0

SMILES: C=C[C@H]1CN2CC[C@]3(C(=O)Nc4ccccc43)[C@@H]2C[C@@H]1/C(=C\OC)C(=O)OC [Corynoxeine] (2 µM)
- number of time points [1]: 0
- number of time points [2]: 0
- number of time points [3]: 0
- number of time points [4]: 0
- number of time points [5]: 0
- number of time points [6]: 0
- number of time points [7]: 0
- number of time points [8]: 0
- number of time points [9]: 0
- number of time points [10]: 0

SMILES: C[C@H]1CC[C@]2(NC1)O[C@H]1C[C@H]3[C@@H]4CC[C@H]5C[C@@H](O[C@@H]6O[C@H](CO)[C@H](O[C@@H]7O[C@H](CO)[C@@H](O)[C@H](O[C@@H]8OC[C@@H](O)[C@H](O)[C@H]8O)[C@H]7O[C@@H]7O[C@H](CO)[C@@H](O)[C@H](O)[C@H]7O)[C@H](O)[C@H]6O)CC[C@]5(C)[C@H]4CC[C@]3(C)[C@H]1[C@@H]2C [Tomatine] (2.5 µM)
- number of time points [1]: 0
- number of time points [2]: 0
- number of time points [3]: 0
- number of time points [4]: 0
- number of time points [5]: 0
- number of time points [6]: 1
- number of time points [7]: 3
- number of time points [8]: 0
- number of time points [9]: 4
- number of time points [10]: 0

SMILES: O=C1C=CC[C@@H]2[C@H]3CCCN4CCC[C@@H](CN12)[C@@H]34 [Sophocarpine] (10 µM)
- number of time points [1]: 0
- number of time points [2]: 0
- number of time points [3]: 0
- number of time points [4]: 0
- number of time points [5]: 0
- number of time points [6]: 0
- number of time points [7]: 0
- number of time points [8]: 0
- number of time points [9]: 0
- number of time points [10]: 0

SMILES: CN(C)C(=O)c1ccc(Cn2c(C(=O)O)cc3c(Br)cc(Sc4ccc(Cl)c(Cl)c4)cc32)cc1 [Rheb inhibitor NR1] (10 µM)
- number of time points [1]: 0
- number of time points [2]: 0
- number of time points [3]: 0
- number of time points [4]: 0
- number of time points [5]: 0
- number of time points [6]: 0
- number of time points [7]: 0
- number of time points [8]: 0
- number of time points [9]: 0
- number of time points [10]: 0

SMILES: C[C@@H]1CC[C@H]2[C@@H](C)C(=O)O[C@@H]3O[C@@]4(C)CC[C@@H]1[C@]32OO4 [Artemisinin] (10 µM)
- number of time points [1]: 0
- number of time points [2]: 0
- number of time points [3]: 0
- number of time points [4]: 0
- number of time points [5]: 0
- number of time points [6]: 0
- number of time points [7]: 0
- number of time points [8]: 0
- number of time points [9]: 0
- number of time points [10]: 0

SMILES: CC(=O)Oc1ccc(/C=C/c2cc(OC(C)=O)cc(OC(C)=O)c2)cc1 [Triacetylresveratrol] (10 µM)
- number of time points [1]: 0
- number of time points [2]: 0
- number of time points [3]: 0
- number of time points [4]: 0
- number of time points [5]: 0
- number of time points [6]: 0
- number of time points [7]: 0
- number of time points [8]: 0
- number of time points [9]: 0
- number of time points [10]: 0

SMILES: Cc1ccccc1-n1c(Cn2ncc3c(N)ncnc32)nc2cccc(C)c2c1=O (10 µM)
- number of time points [1]: 0
- number of time points [2]: 0
- number of time points [3]: 0
- number of time points [4]: 0
- number of time points [5]: 0
- number of time points [6]: 0
- number of time points [7]: 0
- number of time points [8]: 0
- number of time points [9]: 0
- number of time points [10]: 0

SMILES: CC(=O)c1c(O)c(C)c(O)c(Cc2c(O)c3c(c(C(=O)/C=C/c4ccccc4)c2O)OC(C)(C)C=C3)c1O [Rottlerin] (2 µM)
- number of time points [1]: 0
- number of time points [2]: 0
- number of time points [3]: 0
- number of time points [4]: 0
- number of time points [5]: 0
- number of time points [6]: 0
- number of time points [7]: 0
- number of time points [8]: 0
- number of time points [9]: 2
- number of time points [10]: 0
